Reference: the supplement of paper PMC3353916

Tested on: Sindbis virus TE/5'2J-GFP
Experiment: percent infected (GFP+ in RFP+ ISG-expressing cells); higher = more infection (less antiviral activity)
Settings: experiment: primary screen (single well)

Sequence	percent infected (BHK/NZAP-Zeo (ZAP)) [%]	percent infected (BHK/HA-Zeo (control)) [%]
MNTSIPYQQNPYNPRGSSNVIQCYRCGDTCKGEVVRVHNNHFHIRCFTCQVCGCGLAQSGFFFKNQEYICTQDYQQLYGTRCDSCRDFITGEVISALGRTYHPKCFVCSLCRKPFPIGDKVTFSGKECVCQTCSQSMASSKPIKIRGPSHCAGCKEEIKHGQSLLALDKQWHVSCFKCQTCSVILTGEYISKDGVPYCESDYHAQFGIKCETCDRYISGRVLEAGGKHYHPTCARCVRCHQMFTEGEEMYLTGSEVWHPICKQAARAEKKLKHRRTSETSISPPGSSIGSPNRVICAKVDNEILNYKDLAALPKVKSIYEVQRPDLISYEPHSRYMSDEMLERCGYGESLGTLSPYSQDIYENLDLRQRRASSPGYIDSPTYSRQGMSPTFSRSPHHYYRSGPESGRSSPYHSQLDVRSSTPTSYQAPKHFHIPAGDSNIYRKPPIYKRHGDLSTATKSKTSEDISQTSKYSPIYSPDPYYASESEYWTYHGSPKVPRARRFSSGGEEDDFDRSMHKLQSGIGRLILKEEMKARSSSYADPWTPPRSSTSSREALHTAGYEMSLNGSPRSHYLADSDPLISKSASLPAYRRNGLHRTPSADLFHYDSMNAVNWGMREYKIYPYELLLVTTRGRNRLPKDVDRTRLERHLSQEEFYQVFGMTISEFDRLALWKRNELKKQARLF [ABLIM3]	98.4	
MPAPRAREQPRVPGERQPLLPRGARGPRRWRRAAGAAVLLVEMLERAAFFGVTANLVLYLNSTNFNWTGEQATRAALVFLGASYLLAPVGGWLADVYLGRYRAVALSLLLYLAASGLLPATAFPDGRSSFCGEMPASPLGPACPSAGCPRSSPSPYCAPVLYAGLLLLGLAASSVRSNLTSFGADQVMDLGRDATRRFFNWFYWSINLGAVLSLLVVAFIQQNISFLLGYSIPVGCVGLAFFIFLFATPVFITKPPMGSQVSSMLKLALQNCCPQLWQRHSARDRQCARVLADERSPQPGASPQEDIANFQVLVKILPVMVTLVPYWMVYFQMQSTYVLQGLHLHIPNIFPANPANISVALRAQGSSYTIPEAWLLLANVVVVLILVPLKDRLIDPLLLRCKLLPSALQKMALGMFFGFTSVIVAGVLEMERLHYIHHNETVSQQIGEVLYNAAPLSIWWQIPQYLLIGISEIFASIPGLEFAYSEAPRSMQGAIMGIFFCLSGVGSLLGSSLVALLSLPGGWLHCPKDFGNINNCRMDLYFFLLAGIQAVTALLFVWIAGRYERASQGPASHSRFSRDRG [SLC15A3]	94.6	94.6
MPGKKARKNAQPSPARAPAELEVECATQLRRFGDKLNFRQKLLNLISKLFCSGT [PMAIP1]	76.2	89.5
MPITRMRMRPWLEMQINSNQIPGLIWINKEEMIFQIPWKHAAKHGWDINKDACLFRSWAIHTGRYKAGEKEPDPKTWKANFRCAMNSLPDIEEVKDQSRNKGSSAVRVYRMLPPLTKNQRKERKSKSSRDAKSKAKRKSCGDSSPDTFSDGLSSSTLPDDHSSYTVPGYMQDLEVEQALTPALSPCAVSSTLPDWHIPVEVVPDSTSDLYNFQVSPMPSTSEATTDEDEEGKLPEDIMKLLEQSEWQPTNVDGKGYLLNEPGVQPTSVYGDFSCKEEPEIDSPGGDIGLSLQRVFTDLKNMDATWLDSLLTPVRLPSIQAIPCAP [IRF1]	2.49	4.35
MPLELTQSRVQKIWVPVDHRPSLPRSCGPKLTNSPTVIVMVGLPARGKTYISKKLTRYLNWIGVPTKVFNVGEYRREAVKQYSSYNFFRPDNEEAMKVRKQCALAALRDVKSYLAKEGGQIAVFDATNTTRERRHMILHFAKENDFKAFFIESVCDDPTVVASNIMEVKISSPDYKDCNSAEAMDDFMKRISCYEASYQPLDPDKCDRDLSLIKVIDVGRRFLVNRVQDHIQSRIVYYLMNIHVQPRTIYLCRHGENEHNLQGRIGGDSGLSSRGKKFASALSKFVEEQNLKDLRVWTSQLKSTIQTAEALRLPYEQWKALNEIDAGVCEELTYEEIRDTYPEEYALREQDKYYYRYPTGESYQDLVQRLEPVIMELERQENVLVICHQAVLRCLLAYFLDKSAEEMPYLKCPLHTVLKLTPVAYGCRVESIYLNVESVCTHRERSEDAKKGPNPLMRRNSVTPLASPEPTKKPRINSFEEHVASTSAALPSCLPPEVPTQLPGQNMKGSRSSADSSRKH [PFKFB3]		94.4
MPNSEPASLLELFNSIATQGELVRSLKAGNASKDEIDSAVKMLVSLKMSYKAAAGEDYKADCPPGNPAPTSNHGPDATEAEEDFVDPWTVQTSSAKGIDYDKLIVRFGSSKIDKELINRIERATGQRPHHFLRRGIFFSHRDMNQVLDAYENKKPFYLYTGRGPSSEAMHVGHLIPFIFTKWLQDVFNVPLVIQMTDDEKYLWKDLTLDQAYSYAVENAKDIIACGFDINKTFIFSDLDYMGMSSGFYKNVVKIQKHVTFNQVKGIFGFTDSDCIGKISFPAIQAAPSFSNSFPQIFRDRTDIQCLIPCAIDQDPYFRMTRDVAPRIGYPKPALLHSTFFPALQGAQTKMSASDPNSSIFLTDTAKQIKTKVNKHAFSGGRDTIEEHRQFGGNCDVDVSFMYLTFFLEDDDKLEQIRKDYTSGAMLTGELKKALIEVLQPLIAEHQARRKEVTDEIVKEFMTPRKLSFDFQ [WARS]	93.2	98.1
MPPAVGGPVGYTPPDGGWGWAVVIGAFISIGFSYAFPKSITVFFKEIEGIFHATTSEVSWISSIMLAVMYGGGPISSILVNKYGSRIVMIVGGCLSGCGLIAASFCNTVQQLYVCIGVIGGLGLAFNLNPALTMIGKYFYKRRPLANGLAMAGSPVFLCTLAPLNQVFFGIFGWRGSFLILGGLLLNCCVAGALMRPIGPKPTKAGKDKSKASLEKAGKSGVKKDLHDANTDLIGRHPKQEKRSVFQTINQFLDLTLFTHRGFLLYLSGNVIMFFGLFAPLVFLSSYGKSQHYSSEKSAFLLSILAFVDMVARPSMGLVANTKPIRPRIQYFFAASVVANGVCHMLAPLSTTYVGFCVYAGFFGFAFGWLSSVLFETLMDLVGPQRFSSAVGLVTIVECCPVLLGPPLLGRLNDMYGDYKYTYWACGVVLIISGIYLFIGMGINYRLLAKEQKANEQKKESKEEETSIDVAGKPNEVTKAAESPDQKDTDGGPKEEESPV [SLC16A1]	98.4	98.8
MPQTPPFSAMFDSSGYNRNLYQSAEDSCGGLYYHDNNLLSGSLEALIQHLVPNVDYYPDRTYIFTFLLSSRLFMHPYELMAKVCHLCVEHQRLSDPDSDKNQMRKIAPKILQLLTEWTETFPYDFRDERMMRNLKDLAHRIASGEEQTYRKNVQQMMQCLIRKLAALSQYEEVLAKISSTSTDRLTVLKTKPQSIQRDIITVCNDPYTLAQQLTHIELERLNYIGPEEFVQAFVQKDPLDNDKSCYSERKKTRNLEAYVEWFNRLSYLVATEICMPVKKKHRARMIEYFIDVARECFNIGNFNSLMAIISGMNMSPVSRLKKTWAKVKTAKFDILEHQMDPSSNFYNYRTALRGAAQRSLTAHSSREKIVIPFFSLLIKDIYFLNEGCANRLPNGHVNFEKFWELAKQVSEFMTWKQVECPFERDRKILQYLLTVPVFSEDALYLASYESEGPENHIEKDRWKSLRSSLLGRV [RASGEF1B]	93.7	97.2
MPRCPAGAMDEGPVDLRTRPKAAGLPGAALPLRKRPLRAPSPEPAAPRGAAGLVVPLDPLRGGCDLPAVPGPPHGLARPEALYYPGALLPLYPTRAMGSPFPLVNLPTPLYPMMCPMEHPLSADIAMATRADEDGDTPLHIAVVQGNLPAVHRLVNLFQQGGRELDIYNNLRQTPLHLAVITTLPSVVRLLVTAGASPMALDRHGQTAAHLACEHRSPTCLRALLDSAAPGTLDLEARNYDGLTALHVAVNTECQETVQLLLERGADIDAVDIKSGRSPLIHAVENNSLSMVQLLLQHGANVNAQMYSGSSALHSASGRGLLPLVRTLVRSGADSSLKNCHNDTPLMVARSRRVIDILRGKATRPASTSQPDPSPDRSANTSPESSSRLSSNGLLSASPSSSPSQSPPRDPPGFPMAPPNFFLPSPSPPAFLPFAGVLRGPGRPVPPSPAPGGS [BCL3]	97.6	98
MPRIDADLKLDFKDVLLRPKRSSLKSRAEVDLERTFTFRNSKQTYSGIPIIVANMDTVGTFEMAAVMSQHSMFTAIHKHYSLDDWKLFATNHPECLQNVAVSSGSGQNDLEKMTSILEAVPQVKFICLDVANGYSEHFVEFVKLVRAKFPEHTIMAGNVVTGEMVEELILSGADIIKVGVGPGSVCTTRTKTGVGYPQLSAVIECADSAHGLKGHIISDGGCTCPGDVAKAFGAGADFVMLGGMFSGHTECAGEVFERNGRKLKLFYGMSSDTAMNKHAGGVAEYRASEGKTVEVPYKGDVENTILDILGGLRSTCTYVGAAKLKELSRRATFIRVTQQHNTVFS [GMPR]	89.5	97.1
MPRQLSAAAALFASLAVILHDGSQMRAKAFPETRDYSQPTAAATVQDIKKPVQQPAKQAPHQTLAARFMDGHITFQTAATVKIPTTTPATTKNTATTSPITYTLVTTQATPNNSHTAPPVTEVTVGPSLAPYSLPPTITPPAHTTGTSSSTVSHTTGNTTQPSNQTTLPATLSIALHKSTTGQKPVQPTHAPGTTAAAHNTTRTAAPASTVPGPTLAPQPSSVKTGIYQVLNGSRLCIKAEMGIQLIVQDKESVFSPRRYFNIDPNATQASGNCGTRKSNLLLNFQGGFVNLTFTKDEESYYISEVGAYLTVSDPETIYQGIKHAVVMFQTAVGHSFKCVSEQSLQLSAHLQVKTTDVQLQAFDFEDDHFGNVDECSSDYTIVLPVIGAIVVGLCLMGMGVYKIRLRCQSSGYQRI [LAMP3]	83.8	97.7
MPSGCHSSPPSGLRGDMASLVPLSPYLSPTVLLLVSCDLGFVRADRPPSPVNVTVTHLRANSATVSWDVPEGNIVIGYSISQQRQNGPGQRVIREVNTTTRACALWGLAEDSDYTVQVRSIGLRGESPPGPRVHFRTLKGSDRLPSNSSSPGDITVEGLDGERPLQTGEVVIIVVVLLMWAAVIGLFCRQYDIIKDNDSNNNPKEKGKGPEQSPQGRPVGTRQKKSPSINTIDV [FNDC4]	93.8	98.2
MPSLWDRFSSSSTSSSPSSLPRTPTPDRPPRSAWGSATREEGFDRSTSLESSDCESLDSSNSGFGPEEDTAYLDGVSLPDFELLSDPEDEHLCANLMQLLQESLAQARLGSRRPARLLMPSQLVSQVGKELLRLAYSEPCGLRGALLDVCVEQGKSCHSVGQLALDPSLVPTFQLTLVLRLDSRLWPKIQGLFSSANSPFLPGFSQSLTLSTGFRVIKKKLYSSEQLLIEEC [DDIT4]	79.9	94.9
MPVERMRMRPWLEEQINSNTIPGLKWLNKEKKIFQIPWMHAARHGWDVEKDAPLFRNWAIHTGKHQPGVDKPDPKTWKANFRCAMNSLPDIEEVKDKSIKKGNNAFRVYRMLPLSERPSKKGKKPKTEKEDKVKHIKQEPVESSLGLSNGVSDLSPEYAVLTSTIKNEVDSTVNIIVVGQSHLDSNIENQEIVTNPPDICQVVEVTTESDEQPVSMSELYPLQISPVSSYAESETTDSVPSDEESAEGRPHWRKRNIEGKQYLSNMGTRGSYLLPGMASFVTSNKPDLQVTIKEESNPVPYNSSWPPFQDLPLSSSMTPASSSSRPDRETRASVIKKTSDITQARVKSC [IRF2]	12.1	94.9
MPVKGGTKCIKYLLFGFNFIFWLAGIAVLAIGLWLRFDSQTKSIFEQETNNNNSSFYTGVYILIGAGALMMLVGFLGCCGAVQESQCMLGLFFGFLLVIFAIEIAAAIWGYSHKDEVIKEVQEFYKDTYNKLKTKDEPQRETLKAIHYALNCCGLAGGVEQFISDICPKKDVLETFTVKSCPDAIKEVFDNKFHIIGAVGIGIAVVMIFGMIFSMILCCAIRRNREMV [CD9]	88	95.7

This is a noisy data set.
